The list shows a part of the results.
What was measured:
Experiment in all cases: log2 fold change, soluble protein after heating vs DMSO (PISA); higher = thermal stabilisation; K562 lysate, 10 uM; active = over 0.2 and 3.5 SD of the protein, either way, in both replicates (recomputed)
[1] = compound: C#Cc1cccc(Nc2ncnc3cc(OCCOC)c(OCCOC)cc23)c1 [erlotinib]
Summary of the method: (§1)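 The values are log-two fold changes in thermal stability compared with solvent controls and come from duplicates. They were obtained by TMTpro 16plex LC-MS/MS, with channel sums equalised, on the supernatant after 21,000xg for 90 min. That supernatant came from crude K562 extract at 1 mg/mL protein treated with 10 μM compound for 30 min, heated for 3 min across 48°C-58°C, pooled and brought to 0.5% NP-40 at 4°C.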

Chains of the proteins cited; added tags and fusions are not shown. Lines headed by an entry give the natural chain unless they say otherwise; changes in a name come on top.
UniProt Q9Y3E7, whole entry, looked up: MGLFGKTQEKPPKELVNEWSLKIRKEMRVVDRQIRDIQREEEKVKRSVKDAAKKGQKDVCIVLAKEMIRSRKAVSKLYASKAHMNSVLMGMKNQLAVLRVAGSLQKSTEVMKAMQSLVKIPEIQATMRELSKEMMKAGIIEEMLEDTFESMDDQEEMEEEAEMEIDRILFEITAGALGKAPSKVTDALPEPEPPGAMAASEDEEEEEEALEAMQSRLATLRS
UniProt O14757: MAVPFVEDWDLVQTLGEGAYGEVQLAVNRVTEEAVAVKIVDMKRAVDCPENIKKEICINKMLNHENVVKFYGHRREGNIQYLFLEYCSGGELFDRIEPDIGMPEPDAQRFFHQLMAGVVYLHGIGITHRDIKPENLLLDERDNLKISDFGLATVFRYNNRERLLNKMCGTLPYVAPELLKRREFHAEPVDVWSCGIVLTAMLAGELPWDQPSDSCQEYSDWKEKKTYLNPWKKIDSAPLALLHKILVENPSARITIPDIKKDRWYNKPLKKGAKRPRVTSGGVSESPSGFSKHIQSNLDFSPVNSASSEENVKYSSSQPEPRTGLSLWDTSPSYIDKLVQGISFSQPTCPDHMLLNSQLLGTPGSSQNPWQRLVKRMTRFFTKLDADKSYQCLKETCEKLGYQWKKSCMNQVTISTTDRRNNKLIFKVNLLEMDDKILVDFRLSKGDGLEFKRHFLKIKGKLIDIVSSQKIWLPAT
UniProt Q8WUH1: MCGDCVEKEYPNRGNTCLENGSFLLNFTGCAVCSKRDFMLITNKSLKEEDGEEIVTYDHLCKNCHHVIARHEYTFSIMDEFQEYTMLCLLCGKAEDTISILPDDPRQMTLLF
UniProt O14646: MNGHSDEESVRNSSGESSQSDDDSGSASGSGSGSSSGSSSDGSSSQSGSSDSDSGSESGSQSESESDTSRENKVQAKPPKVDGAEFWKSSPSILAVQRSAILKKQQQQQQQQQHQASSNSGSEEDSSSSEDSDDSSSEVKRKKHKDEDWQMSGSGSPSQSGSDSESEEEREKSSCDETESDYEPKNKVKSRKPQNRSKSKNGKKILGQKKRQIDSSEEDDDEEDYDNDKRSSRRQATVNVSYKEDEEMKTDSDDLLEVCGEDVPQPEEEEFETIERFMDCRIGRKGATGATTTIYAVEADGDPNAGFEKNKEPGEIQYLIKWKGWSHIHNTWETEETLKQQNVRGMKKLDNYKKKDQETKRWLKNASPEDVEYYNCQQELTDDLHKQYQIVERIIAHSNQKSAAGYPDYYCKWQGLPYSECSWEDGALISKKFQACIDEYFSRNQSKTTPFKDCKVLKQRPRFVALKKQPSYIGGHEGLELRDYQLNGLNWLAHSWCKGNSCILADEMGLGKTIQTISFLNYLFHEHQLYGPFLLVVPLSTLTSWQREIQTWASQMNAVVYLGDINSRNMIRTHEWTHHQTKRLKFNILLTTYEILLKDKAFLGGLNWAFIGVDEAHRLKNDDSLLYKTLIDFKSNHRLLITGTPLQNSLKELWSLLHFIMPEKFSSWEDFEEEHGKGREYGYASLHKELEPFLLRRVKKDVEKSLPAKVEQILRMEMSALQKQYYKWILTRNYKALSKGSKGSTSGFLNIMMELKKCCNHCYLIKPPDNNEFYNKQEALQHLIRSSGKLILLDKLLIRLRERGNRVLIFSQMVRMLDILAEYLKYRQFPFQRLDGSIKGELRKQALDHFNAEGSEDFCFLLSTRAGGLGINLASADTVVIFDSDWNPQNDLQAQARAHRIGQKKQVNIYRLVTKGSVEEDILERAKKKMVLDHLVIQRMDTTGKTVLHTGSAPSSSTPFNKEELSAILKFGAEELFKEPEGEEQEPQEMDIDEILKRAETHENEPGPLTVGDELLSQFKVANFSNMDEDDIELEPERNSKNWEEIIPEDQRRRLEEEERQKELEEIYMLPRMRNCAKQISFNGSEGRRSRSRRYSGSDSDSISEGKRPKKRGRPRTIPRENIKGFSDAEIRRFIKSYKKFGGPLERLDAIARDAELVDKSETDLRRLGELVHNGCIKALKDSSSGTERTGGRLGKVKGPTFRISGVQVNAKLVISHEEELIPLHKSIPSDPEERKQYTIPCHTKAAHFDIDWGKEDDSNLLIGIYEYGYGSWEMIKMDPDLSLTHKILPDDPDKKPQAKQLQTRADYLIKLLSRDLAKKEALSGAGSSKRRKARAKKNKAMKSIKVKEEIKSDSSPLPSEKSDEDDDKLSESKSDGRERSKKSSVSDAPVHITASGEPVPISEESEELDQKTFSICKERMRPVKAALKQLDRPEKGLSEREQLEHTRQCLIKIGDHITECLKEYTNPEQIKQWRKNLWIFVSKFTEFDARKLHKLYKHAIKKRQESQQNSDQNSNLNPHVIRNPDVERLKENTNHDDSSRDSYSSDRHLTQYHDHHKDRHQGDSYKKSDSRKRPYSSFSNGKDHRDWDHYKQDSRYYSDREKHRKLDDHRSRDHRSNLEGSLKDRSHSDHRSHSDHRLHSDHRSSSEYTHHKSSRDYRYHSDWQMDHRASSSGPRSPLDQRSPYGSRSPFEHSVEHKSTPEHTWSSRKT
UniProt O15247: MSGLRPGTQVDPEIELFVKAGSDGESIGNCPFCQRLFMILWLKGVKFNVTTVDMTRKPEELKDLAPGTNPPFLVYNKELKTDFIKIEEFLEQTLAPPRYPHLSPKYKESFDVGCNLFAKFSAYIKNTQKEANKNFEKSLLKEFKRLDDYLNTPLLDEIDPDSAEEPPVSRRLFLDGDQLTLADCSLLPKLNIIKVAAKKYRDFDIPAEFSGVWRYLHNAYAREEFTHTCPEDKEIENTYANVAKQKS
UniProt Q8N5K1: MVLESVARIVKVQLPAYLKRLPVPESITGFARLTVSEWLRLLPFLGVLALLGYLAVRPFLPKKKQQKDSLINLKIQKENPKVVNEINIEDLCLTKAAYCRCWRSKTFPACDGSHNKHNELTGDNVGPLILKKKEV
UniProt Q8WYQ3: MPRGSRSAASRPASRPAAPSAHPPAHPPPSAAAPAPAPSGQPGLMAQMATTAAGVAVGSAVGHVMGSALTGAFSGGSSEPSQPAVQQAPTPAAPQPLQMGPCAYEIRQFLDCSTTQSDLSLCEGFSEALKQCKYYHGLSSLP
UniProt P09496: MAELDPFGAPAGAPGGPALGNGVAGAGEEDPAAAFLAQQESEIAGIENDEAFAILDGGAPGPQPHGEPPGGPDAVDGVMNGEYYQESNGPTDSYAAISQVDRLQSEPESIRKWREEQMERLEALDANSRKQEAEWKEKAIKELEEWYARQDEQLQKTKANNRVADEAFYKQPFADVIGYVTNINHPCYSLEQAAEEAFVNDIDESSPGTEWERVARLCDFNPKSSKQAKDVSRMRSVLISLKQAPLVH
UniProt P51798: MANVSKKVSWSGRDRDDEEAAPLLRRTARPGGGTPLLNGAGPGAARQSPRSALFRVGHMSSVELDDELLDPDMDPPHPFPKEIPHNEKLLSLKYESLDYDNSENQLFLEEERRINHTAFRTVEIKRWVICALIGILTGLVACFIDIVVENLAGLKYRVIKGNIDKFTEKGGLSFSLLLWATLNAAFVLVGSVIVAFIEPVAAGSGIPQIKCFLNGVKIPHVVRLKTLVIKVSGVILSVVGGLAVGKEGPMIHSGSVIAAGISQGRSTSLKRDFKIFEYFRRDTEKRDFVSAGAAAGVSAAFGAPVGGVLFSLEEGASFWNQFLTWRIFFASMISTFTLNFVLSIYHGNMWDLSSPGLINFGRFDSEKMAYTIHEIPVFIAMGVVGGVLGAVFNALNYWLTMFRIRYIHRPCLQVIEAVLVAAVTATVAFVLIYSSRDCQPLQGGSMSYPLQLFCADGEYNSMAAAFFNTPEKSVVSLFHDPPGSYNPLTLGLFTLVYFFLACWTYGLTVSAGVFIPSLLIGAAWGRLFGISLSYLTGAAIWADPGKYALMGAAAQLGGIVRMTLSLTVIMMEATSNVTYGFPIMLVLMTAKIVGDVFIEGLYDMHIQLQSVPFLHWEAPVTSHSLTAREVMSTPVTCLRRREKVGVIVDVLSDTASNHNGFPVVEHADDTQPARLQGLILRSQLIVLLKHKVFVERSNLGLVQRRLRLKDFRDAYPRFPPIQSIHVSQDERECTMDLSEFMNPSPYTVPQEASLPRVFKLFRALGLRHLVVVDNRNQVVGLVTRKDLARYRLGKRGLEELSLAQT
UniProt Q2KHT3: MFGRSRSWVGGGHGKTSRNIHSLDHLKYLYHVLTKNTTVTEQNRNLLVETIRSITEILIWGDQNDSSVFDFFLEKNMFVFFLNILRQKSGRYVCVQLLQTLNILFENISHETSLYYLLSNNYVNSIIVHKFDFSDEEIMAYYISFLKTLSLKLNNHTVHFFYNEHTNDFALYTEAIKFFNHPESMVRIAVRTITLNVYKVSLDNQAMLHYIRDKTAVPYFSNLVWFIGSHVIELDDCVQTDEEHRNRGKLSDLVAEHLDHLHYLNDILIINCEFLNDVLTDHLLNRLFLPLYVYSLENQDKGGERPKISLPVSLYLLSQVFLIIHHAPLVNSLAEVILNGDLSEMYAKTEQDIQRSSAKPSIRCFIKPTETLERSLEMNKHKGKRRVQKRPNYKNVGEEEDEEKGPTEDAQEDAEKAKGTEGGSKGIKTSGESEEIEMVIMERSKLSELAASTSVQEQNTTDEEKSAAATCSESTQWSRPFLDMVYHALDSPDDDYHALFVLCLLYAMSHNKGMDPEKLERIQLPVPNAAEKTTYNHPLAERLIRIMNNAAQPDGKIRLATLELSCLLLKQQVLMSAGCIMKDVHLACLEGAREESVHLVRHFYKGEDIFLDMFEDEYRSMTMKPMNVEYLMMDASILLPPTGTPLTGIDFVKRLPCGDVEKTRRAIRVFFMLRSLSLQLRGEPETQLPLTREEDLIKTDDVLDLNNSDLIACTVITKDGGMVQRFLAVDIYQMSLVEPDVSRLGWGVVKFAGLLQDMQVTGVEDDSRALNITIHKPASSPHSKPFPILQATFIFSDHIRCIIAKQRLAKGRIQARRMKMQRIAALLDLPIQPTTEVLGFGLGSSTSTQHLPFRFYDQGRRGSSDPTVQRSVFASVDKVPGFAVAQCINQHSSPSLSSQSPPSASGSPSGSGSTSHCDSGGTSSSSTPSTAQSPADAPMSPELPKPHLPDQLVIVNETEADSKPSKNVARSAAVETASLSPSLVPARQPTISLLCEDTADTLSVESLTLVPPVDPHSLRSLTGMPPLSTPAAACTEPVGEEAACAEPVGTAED
UniProt Q96S66: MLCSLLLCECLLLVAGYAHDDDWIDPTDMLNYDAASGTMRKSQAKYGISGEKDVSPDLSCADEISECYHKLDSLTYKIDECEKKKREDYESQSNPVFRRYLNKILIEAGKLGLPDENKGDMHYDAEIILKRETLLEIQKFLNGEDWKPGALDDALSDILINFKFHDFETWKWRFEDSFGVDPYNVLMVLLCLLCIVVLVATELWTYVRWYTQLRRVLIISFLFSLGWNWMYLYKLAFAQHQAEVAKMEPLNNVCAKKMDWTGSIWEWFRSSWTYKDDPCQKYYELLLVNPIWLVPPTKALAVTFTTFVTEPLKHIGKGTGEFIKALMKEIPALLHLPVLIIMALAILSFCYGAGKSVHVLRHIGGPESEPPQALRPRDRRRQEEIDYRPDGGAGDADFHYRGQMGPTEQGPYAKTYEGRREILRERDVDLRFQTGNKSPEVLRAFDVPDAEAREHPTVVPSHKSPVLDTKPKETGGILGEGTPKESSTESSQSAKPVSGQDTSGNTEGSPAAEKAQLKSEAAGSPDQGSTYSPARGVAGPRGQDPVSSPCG
UniProt P51790: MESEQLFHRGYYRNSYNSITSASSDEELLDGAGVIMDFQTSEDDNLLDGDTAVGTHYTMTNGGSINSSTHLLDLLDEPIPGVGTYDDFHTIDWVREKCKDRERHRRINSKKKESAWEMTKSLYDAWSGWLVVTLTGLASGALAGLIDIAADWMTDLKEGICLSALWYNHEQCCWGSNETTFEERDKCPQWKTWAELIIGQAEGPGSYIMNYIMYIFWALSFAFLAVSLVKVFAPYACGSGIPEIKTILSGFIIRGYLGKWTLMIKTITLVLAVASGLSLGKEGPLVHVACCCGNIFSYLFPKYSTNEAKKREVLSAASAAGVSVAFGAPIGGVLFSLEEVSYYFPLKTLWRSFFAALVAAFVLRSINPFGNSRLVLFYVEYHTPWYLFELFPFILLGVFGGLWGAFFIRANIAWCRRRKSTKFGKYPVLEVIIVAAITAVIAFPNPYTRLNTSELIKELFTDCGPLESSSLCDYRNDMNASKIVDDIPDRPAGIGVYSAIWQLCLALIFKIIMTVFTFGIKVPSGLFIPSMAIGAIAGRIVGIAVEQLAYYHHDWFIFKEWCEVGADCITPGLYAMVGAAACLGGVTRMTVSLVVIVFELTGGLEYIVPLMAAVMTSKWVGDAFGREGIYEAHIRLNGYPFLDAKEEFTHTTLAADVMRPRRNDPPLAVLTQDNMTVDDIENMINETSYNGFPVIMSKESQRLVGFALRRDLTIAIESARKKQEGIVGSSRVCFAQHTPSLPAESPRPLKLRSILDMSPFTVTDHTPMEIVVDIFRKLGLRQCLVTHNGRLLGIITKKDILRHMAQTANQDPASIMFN

[2] = compound: C/C(=N\NC(=O)C1=CC(=CC=C1)S(=O)(=O)N2CCOCC2)/C3=C(C=CC(=C3)Cl)O
Summary of the method: as §1

[3] = compound: C1=CC(=CC=C1C2=NC3=C(N2)C=C(C=C3)C(=O)N)OC4=CC=C(C=C4)Cl
Summary of the method: as §1

[4] = compound: C1=CC2=C(C=CC(=C2)/C=C\3/C(=O)NC(=NCC4=CC=CS4)S3)N=C1
Summary of the method: as §1

[5] = compound: C1=CC2=NC=CN=C2C=C1/C=C/3\C(=O)NC(=O)S3
Summary of the method: as §1

[6] = compound: C1=CC=C(C=C1)C2=NC(=C(N2)C3=CC=NC=C3)C4=CC(=C(C=C4)Cl)O
Summary of the method: as §1

[7] = compound: C1=CC=C2C(=C1)C3=NNC4=CC=CC(=C43)C2=O
Summary of the method: as §1

[8] = compound: C1CCN(C1)C(=O)NC2=CC=CC(=C2)NC3=NC=C(C(=N3)NCCC4=CN=CN4)Br
Summary of the method: as §1

[9] = compound: C1CN(CCC1(CC2=CC=C(C=C2)Cl)N)C3=NC=NC4=C3C=CN4
Summary of the method: as §1

[10] = compound: C1COCCN1CCN2C3=CC=CC=C3N=C2NC(=O)C4=CC(=CC=C4)[N+](=O)[O-] [IRAK-1-4 Inhibitor I]
Summary of the method: as §1

[11] = compound: C=CC(=O)N1CCC[C@@H](n2nc(-c3ccc(Oc4ccccc4)cc3)c3c(N)ncnc32)C1 [ibrutinib]
Summary of the method: as §1

[12] = compound: CC(=O)c1cnc2ccc(-c3cc(Cl)c(O)c(Cl)c3)nc2c1N[C@H]1CC[C@H](CN(C)C)CC1
Summary of the method: as §1

[13] = compound: CC(C)(C)Cn1c(N)nc2ccc(-c3[nH]c(C(C)(C)C)nc3-c3ccc(F)cc3)nc21 [ralimetinib]
Summary of the method: as §1

[14] = compound: CC(C)(O)CC(=O)NCCn1ccc2ncnc(Nc3ccc(Oc4cccc(C(F)(F)F)c4)c(Cl)c3)c21
Summary of the method: as §1

[15] = compound: CC(C)C1=C2N=C(C=C(N2N=C1)NCC3=CC=CC=C3)NCCCCCCN
Summary of the method: as §1

[16] = compound: CC1=C(C(CC(=O)N1)C2=CC=C(C=C2)C(F)(F)F)C(=O)NC3=C(C=C4C(=C3)C=NN4)F
Summary of the method: as §1

[17] = compound: CC1=C(C2=C(C=C1)C(=O)C3=CC=CC=C3N2CCCN)C
Summary of the method: as §1

[18] = compound: CC1=C(C=C(C=C1)NC(=O)C2=CC(=CC=C2)C(C)(C)C#N)NC3=CC4=C(C=C3)N=CN(C4=O)C
Summary of the method: as §1

[19] = compound: CC1=C(C=C(C=C1)NC(=O)C2=CC(=CC=C2)N(C)C)NC(=O)C3=CC=C(C=C3)O
Summary of the method: as §1

[20] = compound: CC1=CC=C(C=C1)SC2=C3C=C(SC3=CN=C2)C(=O)N
Summary of the method: as §1

Target	log2 fold change [1]	log2 fold change [2]	log2 fold change [3]	log2 fold change [4]	log2 fold change [5]	log2 fold change [6]	log2 fold change [7]	log2 fold change [8]	log2 fold change [9]	log2 fold change [10]	log2 fold change [11]	log2 fold change [12]	log2 fold change [13]	log2 fold change [14]	log2 fold change [15]	log2 fold change [16]	log2 fold change [17]	log2 fold change [18]	log2 fold change [19]	log2 fold change [20]
CHMP3 (UniProt Q9Y3E7)	inactive: 0.004	inactive: 0.02	inactive: -0.006	inactive: -0.008	inactive: 0.002	inactive: 0.009	inactive: 0.041	inactive: 0.017	inactive: 0.004	inactive: 0.042	inactive: 0.006	inactive: 0.005	inactive: -0.002	inactive: -0.075	inactive: 0.002	inactive: -0.066	inactive: -0.015	inactive: 0.064	inactive: -0.012	inactive: -0.002
CHEK1 (UniProt O14757)	inactive: -0.048	inactive: -0.057	inactive: 0	active: 0.27	inactive: 0.008	inactive: 0.023	inactive: 0.06	inactive: -0.108	inactive: 0.02	inactive: -0.011	inactive: 0.019	inactive: 0.104	inactive: 0.032	inactive: -0.004	inactive: -0.003	inactive: 0.004	inactive: 0.011	inactive: 0.026	inactive: -0.005	inactive: -0.024
CHURC1 isoform 2 (UniProt Q8WUH1)	inactive: 0.05	inactive: -0.13	inactive: -0.021	inactive: -0.003	inactive: 0.015	inactive: 0.079	inactive: 0.002	inactive: -0.017	inactive: 0.058	inactive: -0.002	inactive: 0.055	inactive: 0.05	inactive: 0.027	inactive: -0.077	inactive: 0.07	inactive: -0.065	inactive: 0.057	inactive: 0.085	inactive: -0.102	inactive: 0.004
CHD1 (UniProt O14646)	inactive: 0.126	inactive: 0.044	inactive: 0.006	inactive: 0.005	inactive: 0.042	inactive: -0.117	inactive: 0.019	inactive: -0.02	inactive: -0.028	inactive: 0.032	inactive: -0.012	inactive: -0.01	inactive: 0.034	inactive: -0.063	inactive: 0.006	inactive: 0.091	inactive: 0.018	inactive: -0.052	inactive: 0.095	inactive: 0.005
CLIC2 (UniProt O15247)	inactive: 0.036	inactive: 0.022	inactive: -0.005	inactive: -0.03	inactive: -0.014	inactive: -0.014	inactive: -0.014	inactive: 0.019	inactive: 0.015	inactive: 0.006	–	inactive: -0.014	inactive: 0.004	inactive: 0.004	inactive: 0.04	inactive: -0.01	inactive: 0.018	inactive: 0.005	inactive: 0.006	inactive: 0.001
CISD2 (UniProt Q8N5K1)	inactive: 0.005	inactive: -0.062	inactive: 0.004	inactive: -0.009	inactive: -0.015	inactive: 0.011	inactive: -0.018	inactive: -0.005	inactive: 0.045	inactive: 0.047	inactive: 0.05	inactive: 0.012	inactive: -0.026	inactive: -0.02	inactive: -0.001	inactive: 0.009	inactive: -0.03	inactive: 0.014	inactive: -0.023	inactive: -0.011
CLPTM1 (UniProt O96005)	inactive: -0.011	inactive: -0.028	inactive: -0.013	inactive: 0.023	inactive: -0.001	inactive: -0.027	inactive: -0.119	inactive: -0.012	inactive: 0.019	inactive: 0.001	–	inactive: -0.042	inactive: 0.005	inactive: 0.021	inactive: -0.038	inactive: -0.007	inactive: 0.034	inactive: 0.023	inactive: -0.021	inactive: -0.012
CLUH, A0A494C0R8	inactive: 0.077	inactive: -0.023	inactive: -0.041	inactive: 0.02	inactive: 0.225	inactive: 0	inactive: -0.114	inactive: 0.05	inactive: -0.063	inactive: 0.008	–	inactive: 0.138	inactive: 0.053	inactive: -0.043	inactive: 0.002	inactive: -0.128	inactive: 0	inactive: 0.016	inactive: -0.035	inactive: 0.029
CHCHD10 (UniProt Q8WYQ3)	inactive: -0.022	inactive: -0.043	inactive: -0.002	inactive: 0.053	inactive: -0.048	inactive: 0.035	inactive: 0.061	inactive: 0.045	inactive: -0.037	inactive: 0.018	inactive: -0.054	inactive: -0.005	inactive: 0.103	inactive: -0.066	inactive: -0.014	inactive: 0.023	inactive: 0.015	–	inactive: 0.043	inactive: -0.017
CLTA isoform 2 (UniProt P09496)	inactive: -0.133	inactive: -0.036	inactive: -0.005	inactive: -0.06	inactive: -0.071	inactive: 0.017	inactive: 0.01	inactive: -0.083	inactive: -0.001	inactive: -0.032	–	inactive: -0.007	inactive: 0.066	inactive: 0.016	inactive: -0.006	inactive: -0.024	inactive: -0.015	inactive: 0.032	inactive: 0.013	inactive: -0.031
CLCN7 (UniProt P51798)	inactive: -0.033	inactive: -0.037	inactive: 0.038	inactive: 0.069	inactive: -0.005	inactive: 0.017	inactive: -0.013	inactive: -0.063	inactive: -0.002	inactive: -0.014	–	inactive: -0.035	inactive: 0.017	inactive: -0.069	inactive: -0.029	inactive: -0.001	inactive: -0.023	inactive: 0.025	inactive: 0.019	inactive: -0.003
CHST11 (UniProt Q9NPF2)	inactive: 0.033	inactive: 0.007	inactive: -0.029	inactive: -0.156	inactive: 0.057	inactive: -0.057	inactive: 0.006	inactive: -0.096	inactive: 0.083	inactive: 0.002	inactive: 0.125	–	inactive: -0.02	inactive: 0.008	inactive: -0.012	inactive: -0.061	inactive: 0	inactive: 0.056	inactive: -0.059	–
CLEC16A (UniProt Q2KHT3)	inactive: -0.001	inactive: 0.008	inactive: 0.017	inactive: -0.017	inactive: 0.036	inactive: 0.03	inactive: 0.01	inactive: -0.024	inactive: 0.02	inactive: -0.017	–	inactive: -0.026	inactive: 0.015	inactive: -0.009	inactive: -0.018	inactive: -0.022	inactive: -0.023	inactive: 0.025	inactive: -0.018	inactive: -0.012
CLDND1 (UniProt Q9NY35)	inactive: -0.088	inactive: -0.05	inactive: -0.071	inactive: 0.015	inactive: 0.026	inactive: -0.021	inactive: -0.059	inactive: 0	inactive: -0.072	inactive: -0.033	–	inactive: 0.019	inactive: 0.051	inactive: 0.045	inactive: -0.028	inactive: 0	inactive: -0.042	inactive: 0.018	inactive: 0.046	inactive: -0.068
CLCC1 (UniProt Q96S66)	inactive: -0.026	inactive: -0.042	inactive: -0.006	inactive: 0.004	inactive: -0.019	inactive: 0.003	inactive: -0.094	inactive: -0.003	inactive: -0.016	inactive: -0.008	–	inactive: 0.007	inactive: -0.012	inactive: 0.057	inactive: -0.013	inactive: -0.004	inactive: 0.01	inactive: -0.037	inactive: -0.03	inactive: -0.011
CLCN3 (UniProt P51790)	inactive: -0.047	inactive: 0.043	inactive: -0.067	inactive: 0.06	inactive: 0.016	inactive: -0.02	inactive: 0.084	inactive: -0.043	inactive: -0.117	inactive: 0.083	–	inactive: 0.038	inactive: 0.038	inactive: 0.05	inactive: -0.089	inactive: -0.03	inactive: 0.024	inactive: -0.155	inactive: -0.017	inactive: 0.079

Full records from above. Values in the order: log2 fold change [1]	log2 fold change [2]	log2 fold change [3]	log2 fold change [4]	log2 fold change [5]	log2 fold change [6]	log2 fold change [7]	log2 fold change [8]	log2 fold change [9]	log2 fold change [10]	log2 fold change [11]	log2 fold change [12]	log2 fold change [13]	log2 fold change [14]	log2 fold change [15]	log2 fold change [16]	log2 fold change [17]	log2 fold change [18]	log2 fold change [19]	log2 fold change [20]
CLCC1 (UniProt Q96S66) reads inactive: -0.026	inactive: -0.042	inactive: -0.006	inactive: 0.004	inactive: -0.019	inactive: 0.003	inactive: -0.094	inactive: -0.003	inactive: -0.016	inactive: -0.008	–	inactive: 0.007	inactive: -0.012	inactive: 0.057	inactive: -0.013	inactive: -0.004	inactive: 0.01	inactive: -0.037	inactive: -0.03	inactive: -0.011
CLDND1 (UniProt Q9NY35) reads inactive: -0.088	inactive: -0.05	inactive: -0.071	inactive: 0.015	inactive: 0.026	inactive: -0.021	inactive: -0.059	inactive: 0	inactive: -0.072	inactive: -0.033	–	inactive: 0.019	inactive: 0.051	inactive: 0.045	inactive: -0.028	inactive: 0	inactive: -0.042	inactive: 0.018	inactive: 0.046	inactive: -0.068

Reference: the supplement of paper PMC10849652
